Results are given in words; binding and its absence hold for the method and conditions named. Binding seen in cells or lysates may run through a third protein. Some results given as binding are weak or reduced against the parent protein; the word gives no strength. For part of these data: Tags and fused reporters may be left off the sequences shown.
What was measured:
[1] = target: T1, ZNF830 (endogenous, U2OS) (human (endogenous in U2OS)) (UniProt Q96NB3); experiment: co-IP; endogenous proteins, U2OS lysate; IP with anti-ZNF830 antibody, western blot with anti-PPIL2 or anti-ZNF830
T1 sequence: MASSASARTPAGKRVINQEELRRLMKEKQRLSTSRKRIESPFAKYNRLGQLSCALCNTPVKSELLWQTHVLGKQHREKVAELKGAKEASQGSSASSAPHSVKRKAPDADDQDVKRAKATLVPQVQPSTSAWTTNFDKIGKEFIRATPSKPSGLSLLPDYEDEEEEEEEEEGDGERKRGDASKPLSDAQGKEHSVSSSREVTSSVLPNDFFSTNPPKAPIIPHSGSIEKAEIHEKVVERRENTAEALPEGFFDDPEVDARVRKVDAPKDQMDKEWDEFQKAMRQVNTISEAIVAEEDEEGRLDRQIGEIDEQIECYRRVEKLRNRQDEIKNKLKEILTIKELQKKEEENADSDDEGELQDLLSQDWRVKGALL

Sequences of proteins named here, by UniProt entry; tags and fusion partners are left off. A change or cut given only in a name is not applied to a line headed by its entry. Residues count along the entry.
UniProt P53350: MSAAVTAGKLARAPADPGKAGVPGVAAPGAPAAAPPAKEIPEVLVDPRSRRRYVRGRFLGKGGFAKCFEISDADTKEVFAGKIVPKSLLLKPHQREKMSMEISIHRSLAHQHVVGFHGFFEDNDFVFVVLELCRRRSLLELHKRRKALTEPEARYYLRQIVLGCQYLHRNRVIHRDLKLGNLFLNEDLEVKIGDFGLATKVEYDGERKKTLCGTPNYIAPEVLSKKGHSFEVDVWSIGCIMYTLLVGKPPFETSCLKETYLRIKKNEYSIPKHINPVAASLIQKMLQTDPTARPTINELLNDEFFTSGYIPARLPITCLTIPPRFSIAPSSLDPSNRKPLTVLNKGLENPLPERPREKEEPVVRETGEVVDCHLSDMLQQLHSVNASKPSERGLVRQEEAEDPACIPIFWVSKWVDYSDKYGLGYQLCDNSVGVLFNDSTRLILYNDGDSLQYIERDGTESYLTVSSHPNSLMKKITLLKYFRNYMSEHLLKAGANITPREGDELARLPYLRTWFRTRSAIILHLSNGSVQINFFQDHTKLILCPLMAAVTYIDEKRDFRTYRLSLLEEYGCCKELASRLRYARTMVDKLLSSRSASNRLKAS
Flag-PLK1 330-603 (polo-box domain): residues 330-603 of P53350

[2] = target: CtIP (endogenous, U2OS) (human (endogenous in U2OS)) (UniProt Q99708); experiment: co-IP; endogenous proteins, U2OS lysate; IP with anti-CtIP antibody, western blot with anti-CtIP and anti-PPIL2; also after 2 μM CPT for 1 h
Flag-PLK1 = Flag-PLK1 (UniProt P53350); experiment: co-IP; 293T cells cotransfected with Flag- and His-tagged constructs; IP with anti-Flag ("indicated antibodies" for Figures 5A, 7C, 7D), western blot with anti-His and anti-Flag; some panels with or without 2 μM CPT for 1 h, or with MG132 (20 μM, 3 h) and NETN lysis
[3] = target: Flag-PLK1 330-603 (polo-box domain) (UniProt P53350); experiment: as above
Flag-CtIP (human) = Flag-CtIP (human) (UniProt Q99708); experiment: as above
[4] = target: T2, GST-ZNF830 (expressed in 293T cells) (UniProt Q96NB3); experiment: co-IP; GST-ZNF830 and Flag-PPIL2 constructs expressed in 293T cells; IP and western blot, IP antibody not stated
T2 sequence: T1 sequence

[5] = target: T3, Flag-CtIP 200-460 (human) (UniProt Q99708); experiment: co-IP; 293T cells cotransfected with Flag- and His-tagged constructs; IP with anti-Flag ("indicated antibodies" for Figures 5A, 7C, 7D), western blot with anti-His and anti-Flag; some panels with or without 2 μM CPT for 1 h, or with MG132 (20 μM, 3 h) and NETN lysis
T3 sequence: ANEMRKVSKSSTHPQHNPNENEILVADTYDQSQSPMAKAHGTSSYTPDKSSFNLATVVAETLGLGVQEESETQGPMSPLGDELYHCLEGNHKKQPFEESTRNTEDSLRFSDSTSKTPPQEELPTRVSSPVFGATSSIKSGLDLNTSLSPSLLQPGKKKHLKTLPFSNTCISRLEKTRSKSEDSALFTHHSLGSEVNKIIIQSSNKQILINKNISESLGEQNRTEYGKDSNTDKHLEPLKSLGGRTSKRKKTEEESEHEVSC

[6] = target: T4, Flag-CtIP 460-897 (human) (UniProt Q99708); experiment: as above
T4 sequence: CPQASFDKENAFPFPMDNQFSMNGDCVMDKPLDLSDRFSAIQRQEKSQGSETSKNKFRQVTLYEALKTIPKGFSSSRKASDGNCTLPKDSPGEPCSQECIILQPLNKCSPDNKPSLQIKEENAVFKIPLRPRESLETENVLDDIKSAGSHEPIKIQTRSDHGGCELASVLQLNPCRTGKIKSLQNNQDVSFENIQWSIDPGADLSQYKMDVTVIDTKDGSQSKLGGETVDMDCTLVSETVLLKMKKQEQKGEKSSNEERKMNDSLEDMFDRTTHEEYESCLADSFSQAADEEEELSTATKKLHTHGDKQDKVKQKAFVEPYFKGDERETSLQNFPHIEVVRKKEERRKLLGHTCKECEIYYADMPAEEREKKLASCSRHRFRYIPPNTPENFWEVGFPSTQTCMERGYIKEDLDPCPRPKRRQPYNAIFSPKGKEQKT

B1: PPIL2 (endogenous, U2OS) (protein, UniProt Q13356 1-520)
chain: MGKRQHQKDKMYITCAEYTHFYGGKKPDLPQTNFRRLPFDHCSLSLQPFVYPVCTPDGIVFDLLNIVPWLKKYGTNPSNGEKLDGRSLIKLNFSKNSEGKYHCPVLFTVFTNNTHIVAVRTTGNVYAYEAVEQLNIKAKNFRDLLTDEPFSRQDIITLQDPTNLDKFNVSNFYHVKNNMKIIDPDEEKAKQDPSYYLKNTNAETRETLQELYKEFKGDEILAATMKAPEKKKVDKLNAAHYSTGKVSASFTSTAMVPETTHEAAAIDEDVLRYQFVKKKGYVRLHTNKGDLNLELHCDLTPKTCENFIRLCKKHYYDGTIFHRSIRNFVIQGGDPTGTGTGGESYWGKPFKDEFRPNLSHTGRGILSMANSGPNSNRSQFFITFRSCAYLDKKHTIFGRVVGGFDVLTAMENVESDPKTDRPKEEIRIDATTVFVDPYEEADAQIAQERKTQLKVAPETKVKSSQPQAGSQGPQTFRQGVGKYINPAATKRAAEEEPSTSATVPMSKKKPSRGFGDFSSW
binding [1]: binds
binding [2]: binds

B2: His-PPIL2 (full length, expressed in 293T cells) (protein, UniProt Q13356 1-520)
chain: B1 chain
binding (Flag-PLK1): binds
binding [3]: binds
binding (Flag-CtIP (human)): binds

B3: Flag-PPIL2 241-520 (domain or fragment, UniProt Q13356 241-520)
chain: YSTGKVSASFTSTAMVPETTHEAAAIDEDVLRYQFVKKKGYVRLHTNKGDLNLELHCDLTPKTCENFIRLCKKHYYDGTIFHRSIRNFVIQGGDPTGTGTGGESYWGKPFKDEFRPNLSHTGRGILSMANSGPNSNRSQFFITFRSCAYLDKKHTIFGRVVGGFDVLTAMENVESDPKTDRPKEEIRIDATTVFVDPYEEADAQIAQERKTQLKVAPETKVKSSQPQAGSQGPQTFRQGVGKYINPAATKRAAEEEPSTSATVPMSKKKPSRGFGDFSSW
binding [4]: binds

B4: His-PPIL2 241-520 (expressed in 293T cells) (domain or fragment, UniProt Q13356 241-520)
chain: B3 chain
binding [5]: binds
binding [6]: binds
binding (Flag-CtIP (human)): binds
